For 68 compounds, AC50 results are on record in PubChem BioAssay AID662 (National Center for Advancing Translational Sciences (NCATS), 2007).

This is one part of the list. These are further read-outs of the screen, such as a control signal, another cell line or another target. No call is given for them. Most of these compounds were active or inconclusive in the main read-out, so they are no random draw. Words in brackets tell the shape of the fitted curve; partial curves, single points and poor fits give uncertain potencies.

This test is described as follows: Cell signaling CRE-BLA (Fsk stim). Particulars: CHO CRE-bla reporter (cAMP response element driving beta-lactamase), forskolin EC10, beta-lactamase ratio; measured here: 460 nm blue channel. In short, it runs like this: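 Cells were plated overnight at 37 °C, exposed to compound titrations plus EC10 NKH 477 for 3 h, then given CCF4 dye for 2 h at room temperature. Blue/green (460/530 nm) ratio was converted to %Activity and AC50 values calculated.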
As a reminder, the AC50 is the concentration at which the activity in the assay is half-maximal. `CCN(CC)S(=O)(=O)c1cc(C(=O)NC2CCCCC2)ccc1C`: the AC50 was 0.398 µM [rising, full curve, poor fit]. In the case of `COc1ccc(CCNC(=O)CSc2nc(-c3ccco3)cc(C(F)(F)F)n2)cc1OC` it was 15.8 µM [rising, single point]; in that of `COc1cc2c(C(=O)NCCCOC(C)C)cn(CC(C)C)c(=O)c2cc1OC`, 10 µM [rising, partial curve]. On to `Cc1nc(SCC(=O)NCc2ccco2)c2c3c(sc2n1)CCCC3`, for which the AC50 is 6.31 µM [rising, partial curve]. Take `CC(C)c1nc2oc3c(NCc4ccccn4)ncnc3c2c2c1COC(C)(C)C2`: the AC50 is 10 µM [rising, partial curve]. With `CCCC(=O)NCCc1cc2c(C)ccc(C)c2[nH]c1=O` the figure was 10 µM [rising, partial curve]. As to `CC(=O)Nc1ccc(C2(O)COc3ccccc3O2)cc1` (stereo not drawn), the AC50 was 0.501 µM [falling, full curve].

With `COc1nc(-c2ccccc2)ccc1-c1noc(C)n1`, the AC50 is 12.6 µM [rising, partial curve]. With `CCCCNC(=O)C1CCCN(S(=O)(=O)c2ccc(-n3cnnn3)cc2)C1` (stereo not drawn), the AC50 was 0.126 µM [falling, single point]. Consider `CCCOP(=O)(c1ccc(N(C)C)cc1)C(O)c1cc(OC)c(OC)c(OC)c1` (stereo not drawn), for which the AC50 was 2 µM [falling, full curve]. `COCCn1c(=O)c(-c2ccc(F)cc2)nc2cnc(Oc3cccc(Cl)c3)nc21`: the AC50 was 25.1 µM [rising, single point]. In the case of `Cc1csc2ncc(C(=O)NCc3ccccc3Cl)c(=O)n12`, the AC50 was 7.94 µM [rising, partial curve]. For `N#Cc1c(N)nc2c(c1N)CC(=O)N2c1ccccc1-c1ccccc1`, the AC50 was 12.6 µM [rising, single point]. `O=C(CCCCCn1c(SCc2ccncc2)nc2ccccc2c1=O)NCc1ccco1`: the AC50 was 20 µM [rising, single point]. With `O=c1c(CCc2ccccc2)nc2cnc(N3CCNCC3)nc2n1-c1ccccc1` the figure was 12.6 µM [rising, partial curve]; with `COc1ccccc1NC(=O)COC(=O)CNC(=O)c1ccc(OC)c(OC)c1`, 10 µM [rising, single point]; with `CC(=O)N(Cc1cc2ccc(C)c(C)c2n2nnnc12)C1CCCC1`, 2.51 µM [rising, partial curve]. With `COc1ccc2cc3cc(C(=O)NCc4ccc5c(c4)OCO5)oc3nc2c1` the figure was 0.0794 µM [rising, full curve, poor fit].

Regarding `O=C(NCc1cccs1)c1nc2c(nnn2Cc2ccccc2Cl)c(=O)[nH]1`, the AC50 is 25.1 µM [rising, single point]. On to `Cn1c(=O)c2c(ncn2CC(O)CNc2ccc(Cl)cc2)n(C)c1=O` (stereo not drawn), for which the AC50 is 10 µM [rising, single point].

As for `O=C(COC(=O)c1ccccc1F)c1ccc(-n2nncc2-c2ccco2)cc1`, the AC50 was 12.6 µM [rising, single point]. Consider `CCCCCCOC(=O)C(C#N)c1nc2ccccc2nc1N1CCN(C)CC1` (stereo not drawn), for which the AC50 is 25.1 µM [rising, single point]. Consider `COc1cccc(-n2c(SCC(=O)NC3CCCCC3)nc3n[nH]c(C)c3c2=N)c1`, for which the AC50 is 7.94 µM [rising, partial curve]. In the case of `COc1cc2cc(CN(Cc3nnnn3Cc3ccccc3)CC3CCCO3)c(=O)[nH]c2cc1OC` (stereo not drawn) it was 12.6 µM [rising, single point]; in that of `CCOC(=O)N1CCC(Nc2cccc(SC)c2)CC1`, 20 µM [falling, single point]. In the case of `CCN1CCCC1CNc1ncnc2c1[nH]c1ccc(F)cc12` (stereo not drawn), the AC50 was 25.1 µM [rising, single point]. As to `CC(=O)Nc1ccc(C(=O)OCCC(C)C)cc1`, the AC50 was 1.58 µM [rising, partial curve]. In the case of `COc1c(Cl)cc(Cl)cc1/C=N/n1cnnc1` it was 0.0126 µM [rising, full curve]; in that of `COC(=O)C(C)Oc1ccc2c3c(c(=O)oc2c1)CCCCC3` (stereo not drawn), 25.1 µM [rising, single point]. For `CCOC(=O)CSc1nc(N)c(C#N)c(CC(C)C)c1C#N`, the AC50 was 12.6 µM [rising, single point]. In the case of `O=S(=O)(Nc1nc2ccccc2nc1NCc1ccco1)c1ccccc1` it was 5.01 µM [falling, full curve, poor fit]; in that of `O=C(Nc1ncnc2c1CCC2)C12CC3CC(CC(C3)C1)C2`, 25.1 µM [rising, single point]. With `Cc1cc(NS(=O)(=O)c2ccc(NC(=O)c3ccoc3C)cc2)nc(C)n1` the figure was 2.51 µM [falling, single point]; with `CCNc1ncc2nc(-c3ccc(OC)cc3)c(=O)n(-c3ccc(OC)cc3)c2n1`, 3.98 µM [rising, partial curve]; with `c1cncc(-c2cncnc2NC2CCNCC2)c1`, 5.01 µM [rising, single point]. Turning to `O=C(c1cccc2c1-c1ccccc1/C2=N/O)N1CCCCC1`, the AC50 is 7.94 µM [falling, partial curve]. With `Cc1cc(NC(=O)CSc2cn(CCNC(=O)c3ccc(Cl)cc3)c3ccccc23)no1` the figure was 7.94 µM [rising, partial curve]. In the case of `CCN(CC)C(=O)COc1ccc2oc(C)c(C(=O)OC(C)C)c2c1`, the AC50 was 12.6 µM [rising, partial curve].

With `N=c1c2c3c(sc2ncn1CCN1CCOCC1)CCCCC3`, the AC50 was 15.8 µM [rising, single point].

For `O=C(O)c1ccccc1-c1ccccc1C(=O)Nc1ccc2c(c1)[nH]c(=O)c1ccccc12`, the AC50 was 0.1 µM [rising, full curve, poor fit]. As for `O=C(C1CCCN(S(=O)(=O)c2cccc3nsnc23)C1)N1CCN(c2ccccn2)CC1` (stereo not drawn), the AC50 is 31.6 µM [falling, partial curve]. As to `CCOC(=O)c1[nH]c(=O)[nH]c1COC(=O)c1cc2ccccc2o1`, the AC50 was 0.398 µM [rising, partial curve]. `C=CCc1ccc(OCC(O)CN2CCCCC2)c(OC)c1` (stereo not drawn): the AC50 was 15.8 µM [rising, single point].

With `COc1ccc(-n2c(=O)c(-c3cccs3)nc3cnc(N(C)C)nc32)cc1`, the AC50 is 12.6 µM [rising, single point]. In the case of `COc1ccc(Oc2ncc3ncc(=O)n(Cc4ccc(F)cc4)c3n2)cc1` it was 20 µM [rising, single point]; in that of `CCOc1ccc(NC2=NC(C(=O)NCc3ccccc3)CC(=O)N2)cc1` (stereo not drawn), 0.02 µM [rising, full curve, poor fit]; in that of `O=C(Nc1cccc(-c2cn3ccccc3n2)c1)c1cnccn1`, 2 µM [rising, full curve]. Turning to `CC(=O)Oc1c(C)cc(O)c2ccccc12`, the AC50 was 10 µM [falling, partial curve]. In the case of `CN1CC(=O)N(CCOc2ccccc2)C1=O` it was 0.2 µM [falling, full curve, poor fit].

Turning to `Clc1cccc(-c2cc3nc4c(c(N5CCOCC5)n3n2)CCCC4)c1`, the AC50 was 3.98 µM [rising, single point].

Consider `COc1ccc(N2CCN(C(=O)c3ccc4c(=O)n(CC5CCCO5)c(=O)[nH]c4c3)CC2)cc1` (stereo not drawn), for which the AC50 is 0.00316 µM [falling, full curve, poor fit]. For `CC12CCC(C(=O)Nc3cccnc3)(CC1=O)C2(C)C` (stereo not drawn), the AC50 is 0.00398 µM [falling, full curve].

For `CN1C(=O)c2ccccc2C(C(=O)O)C1c1cn(C)c2ccccc12` (stereo not drawn), the AC50 is 0.251 µM [falling, full curve, poor fit]. With `COC(=O)c1ccc(CSc2nc3scc(-c4cccs4)c3c(=O)[nH]2)o1` the figure was 12.6 µM [rising, partial curve]; with `CCNc1ncc2nc(CCc3ccccc3)c(=O)n(C)c2n1`, 10 µM [rising, partial curve]; with `CC(C)NC(=O)CN(c1cccc(Br)c1)S(C)(=O)=O`, 25.1 µM [falling, single point]. Turning to `Cc1c(CNCc2cccs2)c(C(=O)O)c(C)n1Cc1ccccc1`, the AC50 was 0.0501 µM [falling, partial curve]. In the case of `CCCC(=O)c1c(NC(C)C)cc(C)oc1=O` it was 6.31 µM [rising, partial curve]. On to `Cc1ccc(C(=O)Nc2nc3ccc(S(C)(=O)=O)cc3s2)s1`, for which the AC50 is 12.6 µM [rising, partial curve]. In the case of `CC1=C(C(=O)OCc2ccccc2)C(c2ccc([N+](=O)[O-])cc2)NC(=O)N1CCCCCC(=O)O` (stereo not drawn) it was 10 µM [rising, partial curve]; in that of `O=C(NC1CC1)c1ccc(S(=O)(=O)NC2CCCCCC2)cc1`, 12.6 µM [rising, partial curve]; in that of `Cc1cc(C(=O)CN(Cc2ccc(F)cc2)S(=O)(=O)c2ccc3c(c2)OCCO3)c(C)n1C`, 25.1 µM [falling, single point]. Consider `Cc1ccc(S(=O)(=O)OC2CCN(C)CC2)cc1`, for which the AC50 was 0.0631 µM [rising, full curve, poor fit]. With `Cc1cc(C)n(-c2ccc(Cl)c(C(=O)OCC(=O)N3CCCCC3C)n2)n1` (stereo not drawn) the figure was 10 µM [rising, single point]; with `Oc1ccc(Nc2nc(N3CCCC3)c3ccccc3n2)cc1`, 10 µM [rising, partial curve]; with `Cc1ccc(C2C(C(=O)c3cc4ccccc4o3)=C(O)C(=O)N2CCN2CCOCC2)o1` (stereo not drawn), 5.01 µM [falling, full curve].

For the compound `Cc1cc(-c2nnc3sc(C4CCCCC4)nn23)n[nH]1`, the AC50 was 2.51 µM [rising, partial curve, poor fit]. In the case of `CC(=O)c1cc(-c2ccc(F)cc2)n(CCC(=O)Nc2cc(C)[nH]n2)c1C` it was 0.631 µM [falling, single point].
